Results reported in publication PMC7819943, “Rice protein-binding microarrays: a tool to detect cis-acting elements near promoter regions in rice”.
The other results are listed elsewhere or left out.

Target: T1, OsSMF1 (Oryza sativa, UniProt Q6ZLB0 1-436)
T1 sequence: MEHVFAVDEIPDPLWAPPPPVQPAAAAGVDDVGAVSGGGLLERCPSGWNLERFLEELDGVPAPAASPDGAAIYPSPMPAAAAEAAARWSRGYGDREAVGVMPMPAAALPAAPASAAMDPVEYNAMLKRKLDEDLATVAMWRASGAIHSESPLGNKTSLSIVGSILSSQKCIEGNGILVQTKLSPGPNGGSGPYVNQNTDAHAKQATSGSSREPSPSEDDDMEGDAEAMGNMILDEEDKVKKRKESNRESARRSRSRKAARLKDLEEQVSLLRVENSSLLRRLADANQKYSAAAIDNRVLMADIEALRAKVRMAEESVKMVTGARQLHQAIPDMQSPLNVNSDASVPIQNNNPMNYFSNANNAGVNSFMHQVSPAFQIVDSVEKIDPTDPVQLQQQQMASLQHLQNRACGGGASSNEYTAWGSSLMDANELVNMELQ
Test: protein-binding microarray (RPBM); PBS, 2% BSA, 51.3 ng/ul salmon testes DNA, 50 uM zinc acetate, 200 nM TF, 25 C, 1 h; high values mean tight binding
Settings: protein: recombinant; tags: N-terminal polyhistidine and DsRed monomer fusion (pET32a); chain copies: 2; label: CyDye5-dUTP incorporated in the synthesized complementary strand; 3' TTTTT single-stranded linker to array surface; dsDNA, one strand shown
Method in brief: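 Transcription factors, each fused N-terminally to a polyhistidine tag and DsRed, were expressed in E. coli BL21-CodonPlus and purified on Ni–NTA. A custom Agilent array was made double-stranded by primer extension with Cy5-dUTP and blocked with 2% BSA. It was incubated with 200 nM protein in PBS, 2% BSA, salmon testes DNA and 50 µM zinc acetate at 25 °C for 1 h, then washed. The binding signal is per-feature fluorescence intensity (arbitrary units) read on an Axon 4000B scanner.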

Sequence | binding signal
GTATCCCGATGACAAGTTGAGGGACCTTCGGTGTACTTTTCGGAGTCACCTAGTGCAG | 16200 fluorescence intensity (a.u.)
CGCAGTCACCTCACCACACGTCGATGGACACGGCGCACCACGGAGTCACCTAGTGCAG | 3490 fluorescence intensity (a.u.)
TATCTATAGGCTCTCTATAAGAGATCCATGTCAGTATATTCGGAGTCACCTAGTGCAG | 6470 fluorescence intensity (a.u.)
CGCGCGCCCGCTCCACACCACCGACCCGTGGCAACGTTTCCGGAGTCACCTAGTGCAG | 4100 fluorescence intensity (a.u.)
CATCGCCGACAGCGACACGTTAGTACAATCACTGTACTCCCGGAGTCACCTAGTGCAG | 5100 fluorescence intensity (a.u.)
CAGCCATACCATCATCATCAACATCCTCCTCCTCCTCATCCGGAGTCACCTAGTGCAG | 3390 fluorescence intensity (a.u.)
AATGTGACTCCACCTACTTAGTCCTGAGGCCACGTGGAATCGGAGTCACCTAGTGCAG | 5800 fluorescence intensity (a.u.)
AGATCGACACGTTAGTCTACACACCTATGCGTGCCTATGCCGGAGTCACCTAGTGCAG | 3580 fluorescence intensity (a.u.)
AAACATTATTAAATAGGTGTATGAATGACAGTCATACTTGCGGAGTCACCTAGTGCAG | 3490 fluorescence intensity (a.u.)
TCCAAGCACCGAGAGCCCGATTCACCGACCACGCCCACCGCGGAGTCACCTAGTGCAG | 3880 fluorescence intensity (a.u.)
CAGCCAACGACTAGACAACATGCTCCACCTTTGCAAATCCCGGAGTCACCTAGTGCAG | 3610 fluorescence intensity (a.u.)
ATTGGTAAATTTATGACAGAAACCGTAGCAAGAAACTATTCGGAGTCACCTAGTGCAG | 11500 fluorescence intensity (a.u.)
AAGAACTTTGATATATGACTAGCGTAGCACGTGGAGGATCCGGAGTCACCTAGTGCAG | 4540 fluorescence intensity (a.u.)
GGGGACATTACTCCGTGGTTTACATGTCATCCAAATAGTTCGGAGTCACCTAGTGCAG | 5320 fluorescence intensity (a.u.)
TCACAATCAGTTGATTACTAGCCACAACTTTCAATCCTAACGGAGTCACCTAGTGCAG | 3360 fluorescence intensity (a.u.)
ATCGTAGATTTGATATGAGTGCTCGTATTTATGGTTAATTCGGAGTCACCTAGTGCAG | 3350 fluorescence intensity (a.u.)
AGGATAGGGAGAGAGGTGAAAGAGACACGGAGGAGAGGGACGGAGTCACCTAGTGCAG | 3500 fluorescence intensity (a.u.)
GGAGCCACGTCGGCCAGCGGCCTCCGCCGTCGAGCTTTTCCGGAGTCACCTAGTGCAG | 5410 fluorescence intensity (a.u.)
AATTCTCCAAGCCCTGTGTTGCATCTGCATGCCATCTCATCGGAGTCACCTAGTGCAG | 25300 fluorescence intensity (a.u.)
ACCAGTCCCAAATCAAACAGTCCTACTAGTTGCATTTTGTCGGAGTCACCTAGTGCAG | 47200 fluorescence intensity (a.u.)
CCCACGGGAGAATTCCCGGCCGCGCGGCGCGCGAGCACCACGGAGTCACCTAGTGCAG | 5740 fluorescence intensity (a.u.)
TCGACGTGTCGGCCAGGTTCCAGCGTGGCAGCCGTCTATACGGAGTCACCTAGTGCAG | 4490 fluorescence intensity (a.u.)
CCCATACATGTAGGGATGACTAGGCGCTGGTAACCAATTACGGAGTCACCTAGTGCAG | 7120 fluorescence intensity (a.u.)
CATGGCGGAGCCAAGAGCATCTCACTAACACTAGTATCGACGGAGTCACCTAGTGCAG | 26500 fluorescence intensity (a.u.)
TGGAGATGGATGATGACTTTGAGGGATTGTCATCGAGGCACGGAGTCACCTAGTGCAG | 4040 fluorescence intensity (a.u.)
TGTTAAATTCGTCTCGCAAAATAGCCTAAGGGTTATAGAACGGAGTCACCTAGTGCAG | 40500 fluorescence intensity (a.u.)
CGACGACGGGGAACATGGGTGACGGCAGGAGCGGCGGTGTCGGAGTCACCTAGTGCAG | 3470 fluorescence intensity (a.u.)

Fetched one by one from above, two records:
Sequence | binding signal
CGACGACGGGGAACATGGGTGACGGCAGGAGCGGCGGTGTCGGAGTCACCTAGTGCAG | 3470 fluorescence intensity (a.u.)
TGTTAAATTCGTCTCGCAAAATAGCCTAAGGGTTATAGAACGGAGTCACCTAGTGCAG | 40500 fluorescence intensity (a.u.)

Next part

Sequence | binding signal
ATTACTTGTTTCATCCATATTGGGTCACTGTAATTTTCCTCGGAGTCACCTAGTGCAG | 3730 fluorescence intensity (a.u.)
CGTCGAACCGCCCACGCGTCCCCTTTGCTGATGTGCTCGCCGGAGTCACCTAGTGCAG | 26800 fluorescence intensity (a.u.)
CTGATCCTTCTCTTCCTCCTCCTCGTCGTCATCCTTCTTGCGGAGTCACCTAGTGCAG | 4190 fluorescence intensity (a.u.)
TAGCACTATGCTGCCCACTTCGAGCTCGAGGTACACGTCACGGAGTCACCTAGTGCAG | 8890 fluorescence intensity (a.u.)
CGCCCGGAGCGGGCCGACCACCACCACCGCCACCTCGCAGCGGAGTCACCTAGTGCAG | 4250 fluorescence intensity (a.u.)
TGTGGTGGCGAGCGGCACGGAGGCGGGGCGGTGGAGGGAGCGGAGTCACCTAGTGCAG | 3980 fluorescence intensity (a.u.)
GAGGAGCTCTGTACCAATAAAGACAACGTGGCAGCTATTCCGGAGTCACCTAGTGCAG | 8220 fluorescence intensity (a.u.)
TCGATCCCCACCTCCGACGCGGCGATCCCCACCGCCATCGCGGAGTCACCTAGTGCAG | 4310 fluorescence intensity (a.u.)
AAAATTGTTCAAAGGATGGCGTAACTTTGGCGTGGAATTACGGAGTCACCTAGTGCAG | 3180 fluorescence intensity (a.u.)
CTAGCAGTAGCTTAGCTAGGCAGGGAGGGCACAAGCAGCACGGAGTCACCTAGTGCAG | 3230 fluorescence intensity (a.u.)
GCCATGCCATAAATAGTGATGTGGCTGTATTCAAACATACCGGAGTCACCTAGTGCAG | 5740 fluorescence intensity (a.u.)
TCGATCACTCGACCGTTGGACACATACGCGCGCGTGGCGTCGGAGTCACCTAGTGCAG | 4050 fluorescence intensity (a.u.)
AAAGGAAAATGGAAGGGCCCTACTTATGGCATCACAGGTACGGAGTCACCTAGTGCAG | 4190 fluorescence intensity (a.u.)
AAATAGAAAGCCCAAACGGATATTTCTTCCTGAGAGCCACCGGAGTCACCTAGTGCAG | 35600 fluorescence intensity (a.u.)
TCTTGATCGTACCACTTATACGAAGGATGATCCTCCATGTCGGAGTCACCTAGTGCAG | 3270 fluorescence intensity (a.u.)
GATGGTGGCTTCAATTCGCCACTACATCCACGTATGACATCGGAGTCACCTAGTGCAG | 9480 fluorescence intensity (a.u.)
ATGCGGTCACGCCACGCCACGCCATGCCATACTCGAATCGCGGAGTCACCTAGTGCAG | 8130 fluorescence intensity (a.u.)
GCCGAACCACACCACCGGCGTGACGTCGACGCCGCCGAGCCGGAGTCACCTAGTGCAG | 9780 fluorescence intensity (a.u.)
GTACAATATATATGATGAATGATCGATGTGTCCGACGTGTCGGAGTCACCTAGTGCAG | 7730 fluorescence intensity (a.u.)
GTGCCAATAGTACGCACACACGTGTCATTAGTATAAATTCCGGAGTCACCTAGTGCAG | 11000 fluorescence intensity (a.u.)
TATACCGACTGCTTGCACATGTGGCGACAATGTAACCGTCCGGAGTCACCTAGTGCAG | 5790 fluorescence intensity (a.u.)
ATCCAATATACAAAGGTAGTGTGCTCCTGCCTCCGCGTGGCGGAGTCACCTAGTGCAG | 3380 fluorescence intensity (a.u.)
TCCGTACTCATTTGTCACGACGGACGTGTAGTGACGTCACCGGAGTCACCTAGTGCAG | 21200 fluorescence intensity (a.u.)
GCTATATATTTGTTGATCAGCTAGGCTGTCAGCAGTTTAGCGGAGTCACCTAGTGCAG | 3650 fluorescence intensity (a.u.)
TTATATTAGGACTTGGGAGTTGGGACACGTATGTTTTATGCGGAGTCACCTAGTGCAG | 3990 fluorescence intensity (a.u.)
CCGTATAGGTCCAGCTAATATGGGCTAGTCACATAGGATGCGGAGTCACCTAGTGCAG | 3720 fluorescence intensity (a.u.)
AAAGGCTGCACGAGCCACTTGTATTACGTTGTCATTCCTTCGGAGTCACCTAGTGCAG | 4010 fluorescence intensity (a.u.)
